Assay results taken from PubChem BioAssay AID2685 (National Center for Advancing Translational Sciences (NCATS), 2010).
The list shows a part of the results. Further columns of the screen follow, without active or inactive calls. The list favours compounds with an active or inconclusive main result. Words in brackets tell the shape of the fitted curve; partial curves, single points and poor fits give uncertain potencies.

Assay: qHTS Assay for Lipid Storage Modulators in Drosophila S3 Cells;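 as to cell number change: cells counted by Cell Tracker Red CMTPX staining in the red channel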
Conditions: BODIPY lipid droplet fluorescence, 18-24 h; for cell number change: measured here: cell count max response, cells fed with added oleic acid
Summary of the method: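 Laser-scanning cytometry quantifies lipid droplet accumulation (500–530 nm total intensity; droplet/cell object ratio) in oleic acid-fed (400 uM added) Drosophila S3 cells treated with a concentration series. 20 uM Triacsin C defined 100% inhibition.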

[1] = measured here: cell number channel AC50, cells fed with added oleic acid
[2] = measured here: lipid fluorescence (Fed channel) AC50, cells fed with added oleic acid

SMILES	cell number change	AC50 [1]	AC50 [2]
CN(c1c(C#N)c(C(F)(F)F)nn1C)N(S(C)(=O)=O)S(C)(=O)=O	-17.9%	0.00461 µM [falling, full curve, poor fit]	23.1 µM [falling, single point]
CC(C)(C)OC(=O)NCCCC[C@@H](C(=O)NCCCCCCCCCCC(=O)N1CCN(C(=O)OC(C)(C)C)CC1)n1cc(CCCC(=O)O)nn1	11.6%	5.8 µM [falling, single point]	–
COc1ccc(-c2c(=O)n(OC)c3ccccc3[n+]2[O-])cc1OC	22.5%	–	–
Cc1cccc(C)c1NC(=O)C1NC(=O)CC1c1ccccc1 (stereo not given)	3.54%	–	6.51 µM [falling, single point]
COc1ccccc1C(=O)N(NC(=O)Oc1ccccc1)C(C)(C)C	50%	16.4 µM [rising, single point]	–
O=C(CSc1ccccc1Cl)N1CCOCC1	21.5%	–	14.6 µM [rising, partial curve, poor fit]
Cc1c(OCC(=O)N[C@@H](CSCc2ccccc2)C(=O)O)ccc2c3c(c(=O)oc12)CCC3	35%	–	–
CC(=O)Nc1ccc(S(=O)(=O)NNC(=O)CCC(=O)Nc2cc(C)ccc2C)cc1	–	–	1.03 µM [falling, full curve, poor fit]
COc1ccc(-n2nc(C(=O)NCC(=O)Nc3ccc(F)cc3)c3ccccc3c2=O)cc1	46.4%	18.4 µM [rising, single point]	6.51 µM [rising, single point]
CCN(CC)c1ncnc2scc(C3COc4ccccc4O3)c12 (stereo not given)	-30.3%	8.2 µM [falling, partial curve, poor fit]	14.6 µM [falling, partial curve, poor fit]
Cc1ccc(-c2nc3c(c(=O)c4ccccc4n3C)c(=O)n2-c2ccccc2)cc1	-0.235%	–	–
COc1ccc(/C(C)=N/NC(=O)CNC(=O)c2ccncc2)c(OC)c1	-8.96%	–	6.51 µM [falling, partial curve, poor fit]
Cc1cc(C)c[n+](CC(=O)c2c(C)cc(C)c([N+](=O)[O-])c2C)c1	-9.12%	–	–
Cc1cc(NC(=O)C2CC(c3ccccc3Cl)=NO2)no1 (stereo not given)	-2.81%	–	0.00461 µM [falling, full curve, poor fit]
COc1ccc(CNC(=O)Nc2cccc(C)c2)cc1	12.7%	–	6.51 µM [rising, partial curve]
CN1CCN(c2ccc(C(=O)c3ccccc3)cc2[N+](=O)[O-])CC1	12.7%	–	–
Cc1ccc(NC(=O)C(C)N2C(=O)c3ccccc3S2(=O)=O)cc1Cl (stereo not given)	–	–	10.3 µM [rising, partial curve]
N#CC1=C(N)OC2=C(CN(Cc3ccccc3)C/C2=C\c2cccnc2)C1c1cccnc1 (stereo not given)	–	1.3 µM [rising, full curve, poor fit]	0.231 µM [rising, full curve, poor fit]
Cc1ccc(-n2c(Cc3cccn3C)nnc2SCC(=O)NCc2ccc3c(c2)OCO3)cc1	35.4%	2.06 µM [rising, full curve]	0.731 µM [rising, full curve, poor fit]
CCOc1ccc(CSCCNC(=S)Nc2ccc(OC)cc2)cc1	2.45%	–	–

SMILES	cell number change	AC50 [1]	AC50 [2]
Cc1noc(C)c1COc1ccc(C(=O)OCC(=O)NC23CC4CC(CC(C4)C2)C3)cc1	2.55%	–	–
Cc1cc([N+](=O)[O-])nn1CC(=O)N1CCN(Cc2ccccc2)CC1	30%	–	29.1 µM [rising, single point]
Cc1cccc(NS(=O)(=O)c2cccc(C(=O)N3CCCCCCC3)c2)c1	-43.7%	23.1 µM [falling, partial curve]	5.8 µM [falling, single point]
COc1ccc(NC(=O)c2ccc3c(c2)NC(=O)CS3)cc1	40.7%	29.1 µM [rising, single point]	–
Cc1ccc(S(=O)(=O)N2CCC(=O)N(C(COCc3cccc(Cl)c3)C(C)C)CC2)cc1 (stereo not given)	0.924%	–	18.4 µM [rising, single point]
CN(C)c1ccccc1C(=O)c1ccccc1N(C)C	2.8%	–	–
O=C(CCN1C(=O)/C(=C\c2ccccc2)SC1=S)NNC(=O)c1ccncc1	27.7%	–	0.731 µM [rising, full curve, poor fit]
O=C(CN(C(=O)CNS(=O)(=O)c1ccc(F)cc1)c1ccccc1F)NCc1ccco1	2.56%	–	–
CCOC(=O)C1=C(CSCC(=O)OC)NC(=O)NC1c1cc(C)ccc1C (stereo not given)	31.7%	6.51 µM [rising, partial curve]	14.6 µM [rising, partial curve]
Cc1noc(C)c1COc1cccc(C(=O)NCc2ccccc2Cl)c1	4.08%	–	–
CN1CC(c2ccc(C#N)cc2)C2(COc3ccccc3C2=O)C12C(=O)Nc1ccccc12 (stereo not given)	10.7%	–	29.1 µM [rising, single point]
Cc1nc2ccc(NS(=O)(=O)c3ccc(F)c(C)c3)cc2[nH]1	-57.9%	16.4 µM [falling, partial curve]	2.31 µM [falling, full curve]
COC(=O)C1=NN(c2ccccc2OC)C2C(=O)N(c3ccccc3OC)C(=O)C12 (stereo not given)	-24%	0.731 µM [falling, full curve, poor fit]	0.0058 µM [falling, full curve, poor fit]
CC1(C)CC(=O)C(C=Nc2cccc(/N=C/C3=C(O)CC(C)(C)CC3=O)n2)=C(O)C1	11.8%	–	0.00651 µM [falling, full curve, poor fit]
COc1ccc(N(CC(=O)NCc2cccs2)S(=O)(=O)c2ccc(F)cc2)cc1	-6.33%	–	1.46 µM [falling, partial curve]
Cc1ccsc1C(=O)N1CCc2ccccc2C1	4.91%	–	–
COC(=O)c1ccc(COC(=O)CCc2nc(-c3ccccc3)c(-c3ccccc3)o2)cc1	10.4%	–	–
COc1ccc(COC(=O)C2=C(C)NC(=O)NC2c2ccc(OC)cc2)cc1 (stereo not given)	-1.09%	–	0.731 µM [rising, single point]
CN(C(=O)c1ccc(NC(=O)Cc2cccc(NC(=O)C3CCN(C(=O)c4ccccc4)CC3)c2)cc1)C1CCCC1	-20.2%	–	0.58 µM [falling, single point]
CC(=O)NCCOc1nc(N(C)C)nc(N(C)C)n1	–	–	3.26 µM [falling, single point]

SMILES	cell number change	AC50 [1]	AC50 [2]
NC(=S)N/N=C/c1ccccc1OCc1cccc(Cl)c1	-7.71%	–	–
CN1CCOc2ccc(S(=O)(=O)N3CCN(S(=O)(=O)c4c(F)cccc4F)CC3)cc21	30.5%	6.51 µM [rising, partial curve]	5.17 µM [rising, partial curve]
C=CCN(CC=C)C(=O)c1cc(Cl)ccc1[N+](=O)[O-]	7.9%	–	29.1 µM [rising, single point]
CCN(CC)c1ccc2cc(-c3nnc(-c4ccncc4)o3)c(=O)oc2c1	129%	18.4 µM [rising, single point]	0.58 µM [rising, single point]
CCN(CC)CCNC(=O)C1CCN(S(=O)(=O)c2c(C)noc2/C=C/c2ccccc2F)CC1	19.3%	–	1.46 µM [rising, full curve]
CCn1c(=O)c2sccc2n(Cc2ccccc2)c1=O	-5.49%	–	0.651 µM [falling, full curve]
O=C(O)c1cccc(Cn2cc(Cl)cn2)c1	-9.75%	–	–
COC(=O)CN1C(=O)[C@H]2[C@@H](C3CC3)N3C(=O)CN(CCO)C(=O)[C@@]3(Cc3ccccc3)[C@H]2C1=O	-8.41%	–	–
O=C(COc1c(CO)cc(Br)cc1CO)NC1CCCc2ccccc21 (stereo not given)	19.3%	–	0.291 µM [rising, full curve]
N#Cc1cnc(Nc2ccc(F)cc2)nc1N	-22.6%	0.164 µM [falling, full curve, poor fit]	0.291 µM [falling, full curve, poor fit]
O=C(Cc1cccs1)Nc1cccc(C(=O)Nc2ccc(C(=O)O)cc2)c1	17%	–	0.259 µM [rising, partial curve, poor fit]
Cc1ccc(C)c(NC(=O)c2cc(-c3ccccc3O)n[nH]2)c1	80.2%	–	–
CC1(C)O[C@@H]2CC3C4C[C@H](F)C5=CC(=O)C=CC5(C)C4C(O)CC3(C)[C@]2(C(=O)CO)O1 (stereo not given in full)	42%	25.9 µM [rising, partial curve]	23.1 µM [rising, partial curve, poor fit]
Cc1ccc2[nH]c(O)c(N=NC(=O)c3ccc(NS(=O)(=O)c4cccs4)cc3)c2c1	-15.2%	–	25.9 µM [falling, partial curve]
CC(C(=O)NCc1cccs1)N1CCN(S(=O)(=O)c2ccc3c(c2)OCCCO3)CC1 (stereo not given)	–	6.51 µM [falling, single point]	5.17 µM [falling, full curve, poor fit]
O=c1oc2ccccc2n1CCn1c2ccccc2c2nc3ccccc3nc21	–	0.411 µM [rising, full curve]	0.259 µM [rising, partial curve, poor fit]
CC(C)(C)OC(=O)NNC(=S)NCc1ccc(Cl)cc1	3.22%	–	9.2 µM [rising, partial curve, poor fit]
Cc1ccc(SCc2cc(=O)[nH]c(N3CCOCC3)n2)cc1	3.07%	0.731 µM [falling, full curve]	4.61 µM [falling, single point]

Of the compounds above, 3 have a tert-butyl group.
SMILES	cell number change	AC50 [1]	AC50 [2]
CC(C)(C)OC(=O)NCCCC[C@@H](C(=O)NCCCCCCCCCCC(=O)N1CCN(C(=O)OC(C)(C)C)CC1)n1cc(CCCC(=O)O)nn1	11.6%	5.8 µM [falling, single point]	–
COc1ccccc1C(=O)N(NC(=O)Oc1ccccc1)C(C)(C)C	50%	16.4 µM [rising, single point]	–
CC(C)(C)OC(=O)NNC(=S)NCc1ccc(Cl)cc1	3.22%	–	9.2 µM [rising, partial curve, poor fit]
